About 4,300 (3.1%) of roughly 140,000 compounds were called active. This list was built around the results that the source calls inconclusive (neither active nor inactive); the mix of calls is not that of the screen.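 Rule for the calls: active = readout at or below -70, meaning at least 70% loss of cells showing the perinucleolar compartment, a nuclear body marking cancer cells; inconclusive = readout between -30 and a set limit; inactive = the rest.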
assay: High Content Assay for Compounds that inhibit the Assembly of the Perinucleolar Compartment; conditions: PC3M PTB-GFP, PNC prevalence imaging, 16 h; at 10 µM; stronger effect = lower value;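 note: plate controls were DMSO wells for no effect and camptothecin positive control wells for full effect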
Method in brief: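 Read-out is percentage of cells bearing a perinucleolar compartment, from automated 20x imaging of fixed, Hoechst-stained PC3M PTB-GFP cells. Cells were seeded 4 h, then exposed 16 h to compound (23 nl of library stock) in duplicate plates.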

Row | Compound | activity change (PNC), negative = inhibition
1 | C/C(=N\Nc1ccccn1)c1ccc(S(=O)(=O)NCc2ccco2)cc1 | active: -82.8%
2 | O=C1C2ON(c3ccccc3)C(c3ccncc3)C2C(=O)N1c1ccc(N2CCOCC2)cc1 (stereo unspecified) | inactive: 4.9%
3 | CCOC(=O)c1cnc(SCC)[nH]c1=O | inconclusive: -53.1%
4 | Cc1cnc(C(=O)Nc2ccccc2F)cn1 | inconclusive: -37.4%
5 | CC1CC(C)CN(CCOc2ccccc2-c2ccccc2)C1 (stereo unspecified) | inconclusive: -30.3%
6 | COc1ccc(CCNC(=O)CCCn2c(SCC#N)nc3ccccc3c2=O)cc1OC | inactive: -4.8%
7 | COc1ccccc1OCC(=O)NCCSCc1ccccc1Cl | inconclusive: -55.4%
8 | Cc1nnc(SCc2cc(=O)n3[nH]cnc3n2)s1 | inconclusive: -78.7%
9 | CN(CC(=O)N1CCCCCC1)S(=O)(=O)c1ccc(Br)s1 | inactive: 32.1%
10 | CCn1c(=O)cc(SCC(=O)N2CCN(C)CC2)c2ccccc21 | inconclusive: -70.6%
11 | O=C(COc1ccc(Cl)cc1Cl)OCC(=O)N1CCCc2ccccc21 | inconclusive: -32.8%
12 | COc1ccc(NC(=O)CSc2nc3c(c(=O)n2-c2ccc(F)cc2)SCC3)cc1 | inconclusive: -39.7%
13 | CCOCCCNC(=O)CCNS(=O)(=O)c1ccc(C)cc1 | inconclusive: -39.6%
14 | Cc1ccc(NC(=O)COC(=O)CCC(=O)c2cccs2)cc1S(=O)(=O)N1CCOCC1 | inconclusive: -58.4%
15 | O=C(NCc1ccc(F)cc1)c1ccc(CS(=O)(=O)Cc2ccc(F)cc2)o1 | inactive: 17.2%
16 | COc1ccc(C(C)=O)cc1CSc1nnc(-c2ccc(Cl)cc2)n1-c1ccccc1 | inactive: -11.7%
17 | Cc1cc(NC(=O)c2noc3c2CCCC3)nn1Cc1ccc(Cl)cc1 | inconclusive: -70.5%
18 | COc1ccc2c(c1)CC[C@@H]1[C@@H]2CC[C@]2(C)C(=O)CC[C@@H]12 | inconclusive: -31.3%
19 | O=C(CC1COc2ccccc2O1)NCCc1ccccc1 (stereo unspecified) | inactive: 50%
20 | COCCNC(=O)Cn1cc2c(n1)CCC(C)C2 (stereo unspecified) | inconclusive: -71.9%
21 | Cc1ccnc2nc(C(=O)Nc3nccs3)nn12 | inconclusive: -45.3%
22 | CCc1cc(C(=O)Cc2ccc(F)cc2)c(O)cc1O | inconclusive: -56.5%
23 | CC1(C)CC2CC(C)(CN2C(=O)COC(=O)c2n[nH]c(=O)c3ccccc23)C1 (stereo unspecified) | inactive: -25.6%

Row | Compound | activity change (PNC), negative = inhibition
24 | CC(=O)NCCc1cc2ccc(C)c(C)c2[nH]c1=O | inactive: -12.4%
25 | CC(=O)Nc1ccc(S(=O)(=O)Oc2ccc(C=O)cc2)cc1 | inactive: 44.5%
26 | COC(=O)CN(c1ccc2c(c1)OCO2)S(C)(=O)=O | inconclusive: -30.1%
27 | Cc1ccc2[nH]c(=O)c(NC(N)=S)nc2c1 | inconclusive: -33.6%
28 | Cc1cccc(NC(=S)/N=C(\N)Nc2nc(C)c3ccccc3n2)c1 | inactive: 49.6%
29 | CCCOc1ccc(S(=O)(=O)NNC(=O)c2cc3ccccc3o2)cc1 | inactive: 22%
30 | FC(F)Oc1ccc(/C=N/NC(=S)Nc2cc(C(F)(F)F)ccc2Cl)cc1 | inconclusive: -34.5%
31 | CCN1CCN(CCCNC(=O)c2cc3sccc3n2CC)CC1 | inactive: -21.1%
32 | CCOC(=O)c1ccc(NC(=O)C(C)N2C(=O)c3ccccc3C2=O)cc1 (stereo unspecified) | inconclusive: -45.3%
33 | O=C(NC1CCCC1)C(c1cccnc1)N(C(=O)c1csnn1)C1CCCC1 (stereo unspecified) | inactive: 5.68%
34 | Cc1nn(-c2ccc(C(=O)O)cc2)c(=O)c2ccccc12 | inconclusive: -61.6%
35 | COc1cccc(C2C3=C(Nc4[nH]n(-c5ccccc5)c(=O)c42)c2ccccc2C3=O)c1 (stereo unspecified) | inconclusive: -39.6%
36 | CCOc1ccc(Nc2nc(Cc3nnc(SCC(=O)NCc4ccco4)n3CC)cs2)cc1 | inactive: 20.6%
37 | COc1ccc(C2=C(N)c3ccccc3C2=O)cc1 | inconclusive: -45.7%
38 | COc1cccc(-c2nnc(NC(=O)Cc3cccs3)s2)c1 | inconclusive: -33.1%
39 | COc1ccc2c(c1)Cc1sc(NC(C)=O)nc1-2 | inconclusive: -71.4%
40 | O=C(OCC(=O)N1CCN(C(=O)c2ccco2)CC1)c1cc(-c2ccc(Cl)c(Cl)c2Cl)nc2ccccc12 | inactive: -7.28%
41 | COC(=O)c1ccc(C2c3c(oc4ccccc4c3=O)C(=O)N2CCCN2CCOCC2)cc1 (stereo unspecified) | inactive: -17.3%
42 | CCCCN(C(=O)CSc1nnc(-c2ccccc2OC)n1C)c1c(N)n(Cc2ccccc2)c(=O)[nH]c1=O | inactive: 27.2%
43 | COC(=O)c1ccc(COC(=O)c2ccc(CS(=O)(=O)c3ccc(C)cc3)cc2)cc1 | inactive: 18.4%
44 | O=S(=O)(c1cccc(C(F)(F)F)c1)N1CCN(C(=S)NCc2ccco2)CC1 | active: -109%
45 | CCCOC(=O)CN1C(=O)c2ccccc2C1=O | inactive: -12.7%
46 | CCOC(=O)CN1C(=O)C(O)(CC(=O)c2ccco2)c2ccccc21 (stereo unspecified) | inconclusive: -30.4%

Compounds 27–28 from above:
Row | Compound | activity change (PNC), negative = inhibition
27 | Cc1ccc2[nH]c(=O)c(NC(N)=S)nc2c1 | inconclusive: -33.6%
28 | Cc1cccc(NC(=S)/N=C(\N)Nc2nc(C)c3ccccc3n2)c1 | inactive: 49.6%

Individual results from above.
COc1ccc(C2=C(N)c3ccccc3C2=O)cc1 – activity change (PNC), negative = inhibition: inconclusive: -45.7%
COC(=O)c1ccc(C2c3c(oc4ccccc4c3=O)C(=O)N2CCCN2CCOCC2)cc1 (stereo unspecified) – activity change (PNC), negative = inhibition: inactive: -17.3%

Additional records follow:

Row | Compound | activity change (PNC), negative = inhibition
47 | COc1ccc(C(=O)c2oc3ccccc3c2N)cc1 | inconclusive: -32.9%
48 | O=C(Nc1ccccc1C(=O)N1CCOCC1)c1ccncc1 | inconclusive: -72.6%
49 | Cc1noc(C)c1CN(C(=S)NC1CC1)c1ccccc1 | inconclusive: -31.4%
50 | Cc1ccc(C2C(C(=O)c3ccco3)=C(O)C(=O)N2c2nnc(C)s2)cc1 (stereo unspecified) | inconclusive: -46.7%
51 | Cn1c(C(=O)NCCc2c[nH]c3ccccc23)cc2sccc21 | active: -81.3%
52 | CC1=C(C(=O)OCc2ccccc2)C(c2ccsc2)C(C#N)=C(N)O1 (stereo unspecified) | inconclusive: -31.8%
53 | Cn1c(=O)c(C(=O)c2ccccc2)nc2ccccc21 | inconclusive: -31.2%
54 | FC(F)(F)c1cc(-c2ccco2)nc(NCc2cccs2)n1 | inactive: -8.59%
55 | O=C(COC(=O)Cc1ccc(-c2ccccc2)cc1)NCc1ccccc1 | inconclusive: -43.7%
56 | COc1c2ccc(C(=O)NCCCCc3ccccc3)cc2nn1C | inconclusive: -39.6%
57 | CCCn1c(N)c(N2CCCCC2)c(=O)n(CC(=O)Nc2ccccc2C)c1=O | inconclusive: -57.9%
58 | CCN(CC)S(=O)(=O)c1cc(C(=O)Nc2ccccc2[N+](=O)[O-])ccc1Cl | inactive: 41.4%
59 | NC(=O)C1(N2CCCCC2)CCN(C(=O)NC2CCCCC2)CC1 | inconclusive: -32.7%
60 | Cc1nonc1OCCNC(=O)C12CC3CC(CC(C3)C1)C2 | inconclusive: -48.8%
61 | Cc1cc(F)ccc1S(=O)(=O)Nc1ccccc1C(=O)Nc1ncn[nH]1 | inconclusive: -36.2%
62 | Cc1sc2ncnc(Nc3ccc(N4CCOCC4)cc3)c2c1-c1ccccc1 | inactive: -0.448%
63 | CC(C)(C)C(=O)NC(=S)Nc1ccccc1C(N)=O | inconclusive: -59.7%
64 | CCOC(=O)N1CCN(C(=O)C2CCCN(Cc3nc(-c4ccc(Cl)cc4)oc3C)C2)CC1 (stereo unspecified) | active: -100%
65 | CC(C)(C)NCCCOc1ccc(Cl)cc1C(C)(C)C | active: -102%
66 | CCOC(=O)c1sc(C)c2c1NC(c1ccc(Cl)cc1)NC2=O (stereo unspecified) | inconclusive: -37.8%
67 | CCOC(=O)N1CCN(S(=O)(=O)c2cc(OCC)ccc2OCC)CC1 | inactive: -8.92%
68 | COc1cccc(CSc2nc3ccccc3cc2C=O)c1 | inconclusive: -43.5%
69 | CCOC(=O)C1=C(C)NC(=O)NC1c1ccco1 (stereo unspecified) | inconclusive: -34.1%

Row | Compound | activity change (PNC), negative = inhibition
70 | Cc1cc(C(=O)Oc2ccccc2C(=O)O)c(C)o1 | active: -100%
71 | COc1ccc(N=C2SC(CC(=O)Nc3ccccc3OC)C(=O)N2Cc2ccco2)cc1 (stereo unspecified) | active: -104%
72 | Cc1noc(C)c1COC(=O)Cc1ccc(Cl)c(Cl)c1 | inconclusive: -35.6%
73 | O=S(=O)(Nc1ccc2c(c1)oc1ccccc12)N1CCCC1 | inactive: 28%
74 | CC(NC(=O)CCCCCCN1C(=O)c2ccccc2C1=O)c1ccc2c(c1)CCCC2 (stereo unspecified) | inconclusive: -49.9%
75 | CC(C)OP(=O)(c1ccc(N(C)C)cc1)C(O)c1ccccc1 (stereo unspecified) | inconclusive: -51.5%
76 | Fc1cccc2sc(Nc3nc4cc5c(cc4s3)OCCO5)nc12 | inactive: 40.2%
77 | C/C=C(\CS(=O)(=O)c1ccccc1)S(=O)(=O)c1ccccc1 | inactive: -3.72%
78 | CC(O)Cc1nsc(NC(=O)c2ccc(Br)o2)n1 (stereo unspecified) | inconclusive: -41.2%
79 | COc1cc(NC(=O)Nc2ccc(C)cc2)cc([N+](=O)[O-])c1 | active: -87.1%
80 | CN(C)c1ccc(/C=N/NC(=O)C(=O)/C=C2\NC3(CCCC3)Cc3ccccc32)cc1 | active: -109%
81 | Cc1ccc(-c2c(C)n([O-])c3c([n+]2=O)CCC3)o1 | inconclusive: -70.2%
82 | Fc1ccc2nc(Nc3nc4cc5c(cc4s3)OCO5)sc2c1 | inconclusive: -62.4%
83 | Cc1onc(-c2c(F)cccc2Cl)c1C(=O)Nc1cccc(Cn2cccn2)c1 | inconclusive: -32.2%
84 | CS(=O)(=O)c1ccc(Cl)c(NC(=O)COC(=O)CNC(=O)c2ccc(Br)o2)c1 | inconclusive: -33.2%
85 | CN(C(=O)c1ccncc1)c1nnc(-c2cnccn2)s1 | inactive: -10.3%
86 | CN(Cc1nc(-c2ccccn2)no1)S(=O)(=O)c1ccc(Cl)cc1 | inconclusive: -45.2%
87 | COC(=O)C1C(=O)C2=C(CC1C)NC(=O)CC2c1cccc(C)c1 (stereo unspecified) | inconclusive: -43.2%
88 | O=C(Nc1ccccc1)N(C1=NCCCCS1)c1ccccc1 | inconclusive: -30.5%
89 | CC(NC(=O)c1sc2ccccc2c1Cl)C1CCCO1 (stereo unspecified) | inactive: 23.7%
90 | Cc1ccc2[nH]c(=O)c(C(c3nnnn3CC3CCCO3)N3CCCc4ccccc43)cc2c1 (stereo unspecified) | inconclusive: -59.6%
91 | Cc1ccc(Nc2ccc(C(F)(F)F)cc2[N+](=O)[O-])cc1 | inconclusive: -50.9%
